The results in this text go back to patent US20080181891A1.

In the experiment the target is canine IGF-IR (canine). Briefly: cells treated with antibody, IGF-I stimulation, immunoprecipitation of IGF-IR and Western blot. Background: Immunoblotting shows a protein as a band on a membrane.

These are yes or no findings as the source states them, for the method shown.

B1: anti-IGF-IR antibody 2.12.1fx (antibody, human IgG2, kappa, V domains shown)
VH: QVQLVESGGGLVKPGGSLRLSCAASGFTFSDYYMSWIRQAPGKGLEWVSYISSSGSTRDYADSVKGRFTISRDNAKNSLYLQMNSLRAEDTAVYYCARDGVETTFYYYYYGMDVWGQGTTVTVSS
VL: DIQMTQSPSSLSASVGDRVTITCRASQDIRRDLGWYQQKPGKAPKRLIYAASRLQSGVPSRFSGSGSGTEFTLTISSLQPEDFATYYCLQHNNYPRTFGQGTKVEIKR
B1: the binding result was “no binding (tested: 1 µg/ml)”.
